{"sequences": {"note": "Amino acid sequences for entries named in this document (tags omitted).", "UniProt P10635, whole entry": "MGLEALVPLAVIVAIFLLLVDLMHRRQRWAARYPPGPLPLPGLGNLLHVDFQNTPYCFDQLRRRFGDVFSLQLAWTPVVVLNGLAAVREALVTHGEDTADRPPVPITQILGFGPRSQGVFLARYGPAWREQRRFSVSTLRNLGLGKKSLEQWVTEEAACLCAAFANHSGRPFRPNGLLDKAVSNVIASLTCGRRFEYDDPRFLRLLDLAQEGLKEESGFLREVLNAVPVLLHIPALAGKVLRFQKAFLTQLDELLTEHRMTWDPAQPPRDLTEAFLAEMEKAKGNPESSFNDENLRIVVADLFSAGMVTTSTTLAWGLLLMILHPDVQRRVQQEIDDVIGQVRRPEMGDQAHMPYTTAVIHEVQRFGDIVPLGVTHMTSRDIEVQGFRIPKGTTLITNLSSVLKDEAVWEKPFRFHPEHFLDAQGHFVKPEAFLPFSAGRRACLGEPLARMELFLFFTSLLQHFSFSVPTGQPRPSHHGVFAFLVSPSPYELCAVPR"}, "source": "ChEMBL document CHEMBL4007422", "about": "(J Med Chem, 2017)", "target": "Cytochrome P450 2D6 (Homo sapiens, UniProt P10635)", "assay": "Inhibition of CYP2D6 in human liver microsomes in presence of NADPH by LC-MS/MS analysis", "data": [{"compound": "CN1CCN(Cc2cn(S(=O)(=O)c3ccc(F)cc3)c3ccccc23)CC1", "values": [{"measurement": "IC50", "result": 8.8, "unit": "µM"}]}]}
